Targets include NSF N210A (UniProt P18708); NSF N204A (UniProt P18708); NSF W213A (UniProt P18708); NSF N214A (UniProt P18708); NSF I208A (UniProt P18708); NSF F215A (UniProt P18708); NSF G221PG222P (UniProt P18708); NSF K217A (UniProt P18708); NSF G221AG222A (UniProt P18708); NSF E203A (UniProt P18708); NSF I209A (UniProt P18708); NSF M218A (UniProt P18708); NSF S207A (UniProt P18708); NSF P211A (UniProt P18708); NSF I220A (UniProt P18708); NSF D212A (UniProt P18708); NSF G219A (UniProt P18708); NSF Q206A (UniProt P18708); NSF E216A (UniProt P18708).

Amino acid sequences for entries named in this document (tags omitted). A change or cut given only in a name is not applied to a line headed by its entry.
UniProt P18708: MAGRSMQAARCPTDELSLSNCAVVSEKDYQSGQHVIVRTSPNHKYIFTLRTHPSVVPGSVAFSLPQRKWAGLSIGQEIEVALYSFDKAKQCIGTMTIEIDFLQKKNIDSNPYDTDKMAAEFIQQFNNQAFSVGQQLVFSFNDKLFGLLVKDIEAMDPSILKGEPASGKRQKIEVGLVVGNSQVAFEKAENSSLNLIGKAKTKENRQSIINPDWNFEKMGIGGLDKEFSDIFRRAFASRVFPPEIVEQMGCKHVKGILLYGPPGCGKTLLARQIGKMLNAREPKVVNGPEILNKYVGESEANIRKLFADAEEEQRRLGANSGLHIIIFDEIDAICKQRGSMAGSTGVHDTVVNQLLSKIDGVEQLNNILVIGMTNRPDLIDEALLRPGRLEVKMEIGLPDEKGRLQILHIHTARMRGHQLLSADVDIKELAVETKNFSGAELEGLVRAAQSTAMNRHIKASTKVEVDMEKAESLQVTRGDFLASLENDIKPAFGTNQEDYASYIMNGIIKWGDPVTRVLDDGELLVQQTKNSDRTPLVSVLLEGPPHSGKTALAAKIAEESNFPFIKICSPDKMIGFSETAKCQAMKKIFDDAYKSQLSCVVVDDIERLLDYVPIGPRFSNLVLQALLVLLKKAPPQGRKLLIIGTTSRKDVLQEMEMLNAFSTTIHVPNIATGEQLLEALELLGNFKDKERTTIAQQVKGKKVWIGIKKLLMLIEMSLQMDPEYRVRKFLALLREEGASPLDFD

Holding throughout (assay): SEC; Superose-6 column, buffer containing ADP-AlFx; oligomeric state of purified NSF; both purified

No constants are given. Whether binding was seen depends on the method and setting. Some binding calls cover weakened binding; strength is not graded here.

For “NSF N210A (from UniProt P18708 1-744) (enzyme)”, in the test with NSF N210A, the binding entry was “binds”.
As to “NSF N204A (from UniProt P18708 1-744) (enzyme)”, the binding entry with NSF N204A is “binds”.
On to “NSF W213A (from UniProt P18708 1-744) (enzyme)”, for which, in the test with NSF W213A, the binding result is reported as “binds”.
Regarding “NSF N214A (from UniProt P18708 1-744) (enzyme)”, the binding entry in the test with NSF N214A is “binds”.
In the case of “NSF I208A (from UniProt P18708 1-744) (enzyme)”, in the test with NSF I208A, the binding result was “binds”.
As to “NSF F215A (from UniProt P18708 1-744) (enzyme)”, the binding entry in the test with NSF F215A was “binds”.
With “NSF G221PG222P (from UniProt P18708 1-744) (enzyme)”, in the test with NSF G221PG222P, the binding result is listed as “binds”.
In the case of “NSF K217A (from UniProt P18708 1-744) (enzyme)”, the binding result with NSF K217A is “binds”.
As for “NSF G221AG222A (from UniProt P18708 1-744) (enzyme)”, the binding entry with NSF G221AG222A is on record as “binds”.
As to “NSF E203A (from UniProt P18708 1-744) (enzyme)”, in the test with NSF E203A, the binding result is reported as “binds”.
In the case of “NSF I209A (from UniProt P18708 1-744) (enzyme)”, the binding result with NSF I209A is “binds”.
Turning to “NSF M218A (from UniProt P18708 1-744) (enzyme)”, the binding entry with NSF M218A is recorded as “binds”.
On to “NSF S207A (from UniProt P18708 1-744) (enzyme)”, for which, in the test with NSF S207A, the binding entry is recorded as “binds”.
As to “NSF P211A (from UniProt P18708 1-744) (enzyme)”, in the test with NSF P211A, the binding entry was “binds”.
“NSF I220A (from UniProt P18708 1-744) (enzyme)”: in the test with NSF I220A, the binding result is on record as “binds”.
Turning to “NSF D212A (from UniProt P18708 1-744) (enzyme)”, the binding entry with NSF D212A is on record as “binds”.
On to “NSF G219A (from UniProt P18708 1-744) (enzyme)”, for which, in the test with NSF G219A, the binding result was “binds”.
In the case of “NSF Q206A (from UniProt P18708 1-744) (enzyme)”, the binding entry with NSF Q206A was “binds”.
Turning to “NSF E216A (from UniProt P18708 1-744) (enzyme)”, the binding result with NSF E216A was “binds”.

The values above are taken from paper PMC3646813.
